Test results as given in article PMC5818251.
Results are given in words; binding and its absence hold for the method and conditions named. Binding seen in cells or lysates may run through a third protein. Some entries that bind do so weakly or less than the wild type.

Chains of the proteins cited; added tags and fusions are not shown.
UniProt P47941: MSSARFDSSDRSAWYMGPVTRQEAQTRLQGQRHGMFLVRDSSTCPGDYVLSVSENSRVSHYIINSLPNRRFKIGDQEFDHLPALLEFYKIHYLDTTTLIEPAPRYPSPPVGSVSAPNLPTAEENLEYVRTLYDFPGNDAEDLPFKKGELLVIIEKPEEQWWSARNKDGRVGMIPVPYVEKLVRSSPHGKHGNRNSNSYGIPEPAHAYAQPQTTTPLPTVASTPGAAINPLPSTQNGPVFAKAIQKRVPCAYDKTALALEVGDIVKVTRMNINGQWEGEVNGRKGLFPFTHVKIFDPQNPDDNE
UniProt Q60631: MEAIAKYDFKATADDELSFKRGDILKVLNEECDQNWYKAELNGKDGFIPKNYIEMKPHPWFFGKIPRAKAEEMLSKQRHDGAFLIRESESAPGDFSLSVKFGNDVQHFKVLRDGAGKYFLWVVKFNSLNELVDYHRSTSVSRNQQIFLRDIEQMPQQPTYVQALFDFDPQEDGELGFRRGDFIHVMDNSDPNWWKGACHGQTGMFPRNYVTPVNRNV

Molecular target: TAP-Crkl (Crkl protein conjugated to a tandem affinity purification tag) (UniProt P47941)
Assay: co-IP; NIH-3T3 cells transfected with TAP-Crkl, serum depleted overnight, treated with recombinant human FGF2 (100 ng/ml, 5 min) or control; lysed in 25 mM Tris-HCl pH 7.4, 1 mM EDTA, 150 mM NaCl, 1% NP-40, 5% glycerol; TAP-Crkl captured on streptavidin resin, washed at 4°C; immunoblots for Frs2, Shp2 and Grb2

binding: binds
Substance: Grb2 (from UniProt Q60631 1-217)
